This is an account of results in paper PMC8384837.

Where a chain is given by its changes, count along the chain named. Some of the results follow. For some assays here: At the low end of the ranking, values are background and their order means little. A value given as a limit tells only on which side of the number the result lay.

Details in all cases: yeast three-hybrid, YBZ-1, SC-Leu-His + 0.5 mM 3-AT, 4 days
Experiment [1] has as its target T1, PUM1 PUF domain R3-DFL C935D + R936F + Q939L (Homo sapiens) (UniProt Q14671).
T1 sequence: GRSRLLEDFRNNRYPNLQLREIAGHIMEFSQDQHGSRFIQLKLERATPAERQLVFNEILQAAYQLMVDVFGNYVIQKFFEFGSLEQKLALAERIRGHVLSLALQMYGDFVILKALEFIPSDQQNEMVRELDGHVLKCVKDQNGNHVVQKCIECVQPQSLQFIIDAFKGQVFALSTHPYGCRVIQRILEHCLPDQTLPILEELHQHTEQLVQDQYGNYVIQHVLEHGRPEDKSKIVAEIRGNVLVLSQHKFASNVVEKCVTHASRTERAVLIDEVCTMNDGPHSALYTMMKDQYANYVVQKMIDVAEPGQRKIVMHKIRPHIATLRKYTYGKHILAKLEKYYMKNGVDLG

The target in experiment [2] is T2, PUM1 PUF domain R3-FCE C935F + R936C + Q939E (Homo sapiens) (UniProt Q14671).
T2 sequence: T1 sequence with D108F, F109C, L112E

Experiment [3] addresses T3, PUM1 PUF domain R3-IRC C935I + Q939C (Homo sapiens) (UniProt Q14671).
T3 sequence: T1 sequence with D108I, F109R, L112C

The target of experiment [4] is T4, PUM1 PUF domain R3-PWW C935P + R936W + Q939W (Homo sapiens) (UniProt Q14671).
T4 sequence: T1 sequence with D108P, F109W, L112W

The target in experiment [5] is T5, PUM1 PUF domain R3-VCE C935V + R936C + Q939E (Homo sapiens) (UniProt Q14671).
T5 sequence: T1 sequence with D108V, F109C, L112E

In experiment [6] the target is T6, PUM1 PUF domain R3-YCD C935Y + R936C + Q939D (Homo sapiens) (UniProt Q14671).
T6 sequence: T1 sequence with D108Y, F109C, L112D

The target of experiment [7] is T7, PUM1 PUF domain R3-YCV C935Y + R936C + Q939V (Homo sapiens) (UniProt Q14671).
T7 sequence: T1 sequence with D108Y, F109C, L112V

The target in experiment [8] is T8, PUM1 PUF domain R3-YRA C935Y + Q939A (Homo sapiens) (UniProt Q14671).
T8 sequence: T1 sequence with D108Y, F109R, L112A

Experiment [9] has as its target T9, PUM1 PUF domain R4-AGY N971A + H972G + Q975Y (UniProt Q14671).
T9 sequence: T1 sequence with D108C, F109R, L112Q, N144A, H145G, Q148Y

Experiment [10] has as its target T10, PUM1 PUF domain R4-ALY N971A + H972L + Q975Y (UniProt Q14671).
T10 sequence: T1 sequence with D108C, F109R, L112Q, N144A, H145L, Q148Y

Experiment [11] concerns the target T11, PUM1 PUF domain R4-AQY N971A + H972Q + Q975Y (UniProt Q14671).
T11 sequence: T1 sequence with D108C, F109R, L112Q, N144A, H145Q, Q148Y

The target in experiment [12] is T12, PUM1 PUF domain R4-CRS N971C + H972R + Q975S (UniProt Q14671).
T12 sequence: T1 sequence with D108C, F109R, L112Q, N144C, H145R, Q148S

In experiment [13] the target is T13, PUM1 PUF domain R4-DFL N971D + H972F + Q975L (UniProt Q14671).
T13 sequence: T1 sequence with D108C, F109R, L112Q, N144D, H145F, Q148L

For experiment [14], the target named is T14, PUM1 PUF domain R4-DRC N971D + H972R + Q975C (UniProt Q14671).
T14 sequence: T1 sequence with D108C, F109R, L112Q, N144D, H145R, Q148C

Experiment [15] concerns the target T15, PUM1 PUF domain R4-EYI N971E + H972Y + Q975I (UniProt Q14671).
T15 sequence: T1 sequence with D108C, F109R, L112Q, N144E, H145Y, Q148I

Experiment [16] has as its target T16, PUM1 PUF domain R4-GPY N971G + H972P + Q975Y (UniProt Q14671).
T16 sequence: T1 sequence with D108C, F109R, L112Q, N144G, H145P, Q148Y

In experiment [17] the target is T17, PUM1 PUF domain R4-GWY N971G + H972W + Q975Y (UniProt Q14671).
T17 sequence: T1 sequence with D108C, F109R, L112Q, N144G, H145W, Q148Y

The target in experiment [18] is T18, PUM1 PUF domain R4-LGC N971L + H972G + Q975C (UniProt Q14671).
T18 sequence: T1 sequence with D108C, F109R, L112Q, N144L, H145G, Q148C

Experiment [19] deals with T19, PUM1 PUF domain R4-LGL N971L + H972G + Q975L (UniProt Q14671).
T19 sequence: T1 sequence with D108C, F109R, L112Q, N144L, H145G, Q148L

Experiment [20] deals with T20, PUM1 PUF domain R4-PRC N971P + H972R + Q975C (UniProt Q14671).
T20 sequence: T1 sequence with D108C, F109R, L112Q, N144P, H145R, Q148C

Turning to “GGCUAGAACUAGUGGAUCCCCCGGCGCCCGGCGGCUCGAGCCCGGGUAAGUGUAAUUAGUCUGCAUGCCGCCGGGCGCCAUGCCUGCAGGUCGACUCUAGAAAACAUG”, the binding signal (log2 enrichment (interaction score)) in experiment [1] is -1.64; in experiment [2], -1.62; in experiment [3], -1.98; in experiment [4] it was -3.07; in experiment [5], -3.59; in experiment [6], -2.68. Also, the binding signal (log2 enrichment (interaction score)) in [7] is -2.55; in experiment [8], -2.45.

In the case of “GGCUAGAACUAGUGGAUCCCCCGGCGCCCGGCGGCUCGAGCCCGGGUAAGUGUACAUAGUCUGCAUGCCGCCGGGCGCCAUGCCUGCAGGUCGACUCUAGAAAACAUG”, the binding signal (log2 enrichment (interaction score)) in [9] is < -6.73; in experiment [10], < -6.6; in experiment [11], < -5.01; in experiment [12], < -6.7; in [13], -5.8; in [14] it was < -7.23. Besides, the binding signal (log2 enrichment (interaction score)) was < -6.17 in experiment [15]; < -6.88 in experiment [16]; < -4.78 in experiment [17]; < -7.99 in experiment [18]; < -8.48 in experiment [19]; < -7.89 in experiment [20].
